Values of other authors as cited in PMC7994622, “Eryptosis and Malaria: New Experimental Guidelines and Re-Evaluation of the Antimalarial Potential of Eryptosis Inducers” (Frontiers in Cellular and Infection Microbiology, 2021).
Counter-ions that a name gives are not always drawn.

Tested on: P. falciparum-infected erythrocytes
Details: 10 μM, BinH strain, 2% hematocrit, 24 h, synchronized late stages; ref Bobbala et al., 2010b; cited from earlier work

CCCCc1oc2ccccc2c1C(=O)c1cc(I)c(OCCN(CC)CC)c(I)c1 [Amiodarone, amiodarone HCl]
PS exposure of P. falciparum-infected erythrocytes: increase PS exposure
